Experimental data: article PMC7235295
Construct, isoform or probe ends are uncertain for at least one entry.

Protein sequences, listed by entry. Tags and fused reporters are not part of them.
UniProt Q13148, whole entry: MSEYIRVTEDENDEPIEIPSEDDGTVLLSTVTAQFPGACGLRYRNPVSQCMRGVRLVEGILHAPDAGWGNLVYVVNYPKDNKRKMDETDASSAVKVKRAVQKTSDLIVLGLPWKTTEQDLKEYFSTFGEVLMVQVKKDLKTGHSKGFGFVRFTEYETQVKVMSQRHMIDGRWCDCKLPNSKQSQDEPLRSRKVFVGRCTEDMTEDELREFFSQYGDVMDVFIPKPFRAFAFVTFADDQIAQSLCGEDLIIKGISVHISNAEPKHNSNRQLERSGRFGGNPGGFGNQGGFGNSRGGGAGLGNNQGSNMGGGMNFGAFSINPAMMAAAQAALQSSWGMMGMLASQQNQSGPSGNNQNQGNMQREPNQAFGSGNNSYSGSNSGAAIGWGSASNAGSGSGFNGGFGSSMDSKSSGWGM

Target: TDP43 (denatured full-length, ab156345) (UniProt Q13148)
Assay: EMSA
Conditions: denatured TDP43, up to 1.25 uM (Methods, legend prints mM); EMSA: 14 mM Tris pH 8.0, 35 mM KCl, 14 mM NaCl, 1.4 mM MgCl2, 14% glycerol, 0.7 mM DTT, 30 min RT, 5 nM RNA, gel at 4 C; commercial protein; residues 1-414; label: 5'-32P

## UGAGUGUGUGUGUGUGAGUGUGU [miR-574-5p (EMSA)]
  binding result: binds
